In article PMC7217926 one finds binding data, which are given here for 3 substances.

The chains behind the UniProt entries cited, without tags or fusion partners.
UniProt Q3U133: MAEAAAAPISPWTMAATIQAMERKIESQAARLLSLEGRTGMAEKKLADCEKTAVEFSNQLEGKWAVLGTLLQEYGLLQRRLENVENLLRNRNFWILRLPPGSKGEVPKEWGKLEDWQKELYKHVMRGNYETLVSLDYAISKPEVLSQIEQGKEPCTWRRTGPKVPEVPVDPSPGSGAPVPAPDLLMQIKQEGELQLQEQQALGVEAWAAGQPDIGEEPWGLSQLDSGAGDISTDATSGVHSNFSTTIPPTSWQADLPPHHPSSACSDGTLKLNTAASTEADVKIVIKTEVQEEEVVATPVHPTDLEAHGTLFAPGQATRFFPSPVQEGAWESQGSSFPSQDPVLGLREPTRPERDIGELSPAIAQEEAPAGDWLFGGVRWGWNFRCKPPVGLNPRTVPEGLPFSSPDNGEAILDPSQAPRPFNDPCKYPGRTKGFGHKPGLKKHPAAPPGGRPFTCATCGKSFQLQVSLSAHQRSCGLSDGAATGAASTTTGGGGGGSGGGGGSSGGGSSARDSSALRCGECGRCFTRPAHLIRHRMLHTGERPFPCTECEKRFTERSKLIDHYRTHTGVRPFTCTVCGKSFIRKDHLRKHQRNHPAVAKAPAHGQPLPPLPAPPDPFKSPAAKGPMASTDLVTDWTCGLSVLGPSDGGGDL
UniProt Q6NUN9: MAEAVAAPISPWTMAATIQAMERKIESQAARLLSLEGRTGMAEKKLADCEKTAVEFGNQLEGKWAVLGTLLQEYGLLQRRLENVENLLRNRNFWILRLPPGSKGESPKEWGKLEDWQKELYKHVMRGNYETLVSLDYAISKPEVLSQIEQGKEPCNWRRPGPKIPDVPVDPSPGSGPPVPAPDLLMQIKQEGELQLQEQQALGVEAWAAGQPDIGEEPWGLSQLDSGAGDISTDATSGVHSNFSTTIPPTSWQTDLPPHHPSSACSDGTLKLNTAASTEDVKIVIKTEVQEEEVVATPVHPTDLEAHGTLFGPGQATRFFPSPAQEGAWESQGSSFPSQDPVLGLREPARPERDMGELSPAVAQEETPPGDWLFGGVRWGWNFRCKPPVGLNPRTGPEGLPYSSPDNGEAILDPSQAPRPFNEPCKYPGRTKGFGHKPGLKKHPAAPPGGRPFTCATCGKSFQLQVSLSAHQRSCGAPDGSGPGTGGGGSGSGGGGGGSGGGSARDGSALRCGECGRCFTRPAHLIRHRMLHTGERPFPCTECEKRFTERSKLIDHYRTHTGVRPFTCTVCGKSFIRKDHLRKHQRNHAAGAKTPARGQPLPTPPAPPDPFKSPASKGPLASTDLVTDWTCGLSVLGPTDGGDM
UniProt Q12778: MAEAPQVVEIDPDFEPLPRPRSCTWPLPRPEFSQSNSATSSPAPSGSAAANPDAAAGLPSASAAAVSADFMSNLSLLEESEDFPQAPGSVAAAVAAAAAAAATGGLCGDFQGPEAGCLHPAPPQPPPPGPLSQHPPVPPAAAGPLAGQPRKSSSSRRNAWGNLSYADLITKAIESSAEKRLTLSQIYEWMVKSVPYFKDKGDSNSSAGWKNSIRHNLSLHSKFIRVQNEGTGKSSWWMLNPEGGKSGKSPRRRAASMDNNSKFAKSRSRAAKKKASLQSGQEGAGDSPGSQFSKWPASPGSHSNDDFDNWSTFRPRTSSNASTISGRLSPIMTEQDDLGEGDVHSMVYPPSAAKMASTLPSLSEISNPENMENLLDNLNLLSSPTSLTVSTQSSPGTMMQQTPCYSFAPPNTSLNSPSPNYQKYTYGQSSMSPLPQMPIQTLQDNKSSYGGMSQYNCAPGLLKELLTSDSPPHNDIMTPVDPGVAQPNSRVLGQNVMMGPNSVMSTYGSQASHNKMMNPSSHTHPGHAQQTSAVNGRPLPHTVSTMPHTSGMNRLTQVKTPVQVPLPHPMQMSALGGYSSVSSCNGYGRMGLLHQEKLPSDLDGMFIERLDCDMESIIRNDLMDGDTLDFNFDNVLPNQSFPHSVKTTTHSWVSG
UniProt Q9R1E0: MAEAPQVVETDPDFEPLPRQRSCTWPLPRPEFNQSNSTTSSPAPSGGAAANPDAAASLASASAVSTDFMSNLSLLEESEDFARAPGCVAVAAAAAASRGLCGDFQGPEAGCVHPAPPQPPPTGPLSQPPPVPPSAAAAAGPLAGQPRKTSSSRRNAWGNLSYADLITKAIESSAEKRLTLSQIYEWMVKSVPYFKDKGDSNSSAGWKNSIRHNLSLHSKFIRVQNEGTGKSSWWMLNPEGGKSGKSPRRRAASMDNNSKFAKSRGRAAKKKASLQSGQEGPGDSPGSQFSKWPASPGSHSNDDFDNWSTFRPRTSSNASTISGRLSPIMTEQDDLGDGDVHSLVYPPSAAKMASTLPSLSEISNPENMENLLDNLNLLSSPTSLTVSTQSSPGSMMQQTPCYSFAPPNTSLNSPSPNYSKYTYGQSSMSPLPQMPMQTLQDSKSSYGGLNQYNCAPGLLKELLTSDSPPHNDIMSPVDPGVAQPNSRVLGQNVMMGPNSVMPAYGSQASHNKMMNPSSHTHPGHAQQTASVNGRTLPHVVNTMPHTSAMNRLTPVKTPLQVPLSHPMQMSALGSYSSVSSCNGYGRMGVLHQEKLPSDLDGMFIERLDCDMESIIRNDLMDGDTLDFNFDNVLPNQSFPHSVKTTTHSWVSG

Test [1] concerns the target ZNF746 (PARIS), endogenous in C2C12 myoblasts (mouse (endogenous in C2C12)) (UniProt Q3U133). As to the kind of experiment: co-IP; C2C12 cells, untreated or treated with TNF-α (20 ng/ml, 24 h); co-immunoprecipitation of FoxO1 with anti-PARIS antibody; lysis in 10 mM Tris-HCl pH 7.4, 150 mM NaCl, 1 mM EDTA, 1% Triton X-100; immunoblot. On the technique in general: Immunoblotting shows a protein as a band on a membrane.

In test [2] the target is ZNF746 (PARIS), Flag-tagged, overexpressed (UniProt Q6NUN9). As to the kind of experiment: co-IP; 293T cells expressing PARIS-Flag and FoxO1; immunoprecipitation with FoxO1 or PARIS antibodies, magnetic beads, 4 °C overnight; lysis in 10 mM Tris-HCl pH 7.4, 150 mM NaCl, 1 mM EDTA, 1% Triton X-100; immunoblot.
Test [3] deals with FoxO1, overexpressed from pcDNA3-FoxO1 (UniProt Q12778). The description is as above.

No constants are given. Whether binding was seen depends on the method and setting. Binding seen in cells or lysates may run through a third protein. Some results given as binding are weak or reduced against the parent protein; the word gives no strength.

For “FoxO1, endogenous in C2C12 myoblasts (from UniProt Q9R1E0 1-652)”, the binding entry in test [1] was “binds”.

With “FoxO1, overexpressed from pcDNA3-FoxO1 (from UniProt Q12778 1-655)”, in test [2], the binding result is listed as “binds”.

For the substance “ZNF746 (PARIS), Flag-tagged, overexpressed (from UniProt Q6NUN9 1-644)”, the binding entry in test [3] is listed as “binds”.
